Laboratory results as given in PubChem BioAssay AID330 (DTP/NCI, 2004).
The list does not hold the whole screen: it gathers tests that were run many times, whatever their T/C, doses with no T/C, and many T/C values between a quarter and a half above the control. Further doses and runs are listed elsewhere. T/C is the treated group as % of the vehicle group. Some entries give survivors of the animals treated and no T/C: the source holds a T/C of zero for them, seemingly a mark for toxic or unscored doses. Some survivor counts are full or nearly so, which does not show that the dose was tolerated: the source hardly ever lists a survival T/C far under the control, and the zero likely stands for such cases as well. Survivors were counted at the toxicity check, usually on the fifth day, unless a day is given; later deaths do not show. Schedule codes are those of the source, read here as Q, the interval in days (D) or hours (H), X, the number of doses. Some doses were run more than once; the results are listed from low to high. For survival time, the PubChem record calls one and a half times the control and up active, and a quarter to a half above the control has no call in these data; cut-offs in other NCI protocols can differ. Some T/C values carry the count of animals alive at the toxicity check (mostly the fifth day); where none is given, no animal had died by that day.

Test system: P388 leukemia ip, CD2F1 mice, survival T/C
Assay: NCI In Vivo Anticancer Drug Screen. Data for tumor model P388 Leukemia (intraperitoneal) in CD2F1 (CDF1) mice
Settings: T/C endpoint: median survival time, higher T/C = longer survival
[1] = dose: 240.0 mg/kg/injection, schedule: Q01DX005 (ip), vehicle: saline with Tween-80
[2] = dose: 60.0 mg/kg/injection, schedule: Q01DX005 (ip), vehicle: saline with Tween-80
[3] = dose: 50.0 mg/kg/injection, schedule: Q01DX009 (ip), vehicle: Klucel (hydroxypropylcellulose) (HPC)
[4] = dose: 100.0 mg/kg/injection, schedule: Q01DX009 (ip), vehicle: Klucel (hydroxypropylcellulose) (HPC)
[5] = dose: 200.0 mg/kg/injection, schedule: Q01DX009 (ip), vehicle: Klucel (hydroxypropylcellulose) (HPC)
[6] = dose: 200.0 mg/kg/injection, schedule: Q01DX005 (ip), vehicle: saline with Tween-80
[7] = dose: 1000.0 mg/kg/injection, schedule: Q01DX005 (ip), vehicle: water

CC(=O)Nc1cc(N(CCOS(C)(=O)=O)CCOS(C)(=O)=O)ccc1N=O
T/C (dose: 0.02 mg/kg/injection, schedule: Q01DX009 (ip), vehicle: saline): 141 % of control | T/C (dose: 0.04 mg/kg/injection, schedule: Q01DX009 (ip), vehicle: saline): 137 % of control | T/C (dose: 0.62 mg/kg/injection, schedule: Q04DX003 (ip), vehicle: saline sonified): 145 % of control | survivor count (dose: 5.0 mg/kg/injection, schedule: Q04DX003 (ip), vehicle: saline with Tween-80): 5 of 6 | survivor count (dose: 10.0 mg/kg/injection, schedule: Q04DX003 (ip), vehicle: saline with Tween-80): 2 of 6 | survivor count (dose: 20.0 mg/kg/injection, schedule: Q04DX003 (ip), vehicle: saline with Tween-80): 0 of 6 | survivor count (dose: 310.0 micrograms/kg/injection, schedule: Q01DX009 (ip), vehicle: saline): 6 of 6

COc1cc(C(C)c2cc3c(cc2O)OCO3)cc(OC)c1OC (stereo unspecified)
T/C [1]: 127 % of control

N#CN1C2C=CC(c3ccccc3)NC21 (stereo unspecified)
survivor count (dose: 200.0 mg/kg/injection, schedule: Q01DX009 (ip), vehicle: saline with Tween-80): 0 of 6

CCOC(=O)C1=C(N)N(S(=O)(=O)c2ccc(C)cc2)CCC(C(=O)OC)=C1
T/C [2]: 125 % of control

C=CC(C)(CCC=C(C)C)ON(C)C (stereo unspecified)
survivor count (dose: 200.0 mg/kg/injection, schedule: Q04DX002 (ip), vehicle: saline with Tween-80): 6 of 6 | survivor count (dose: 400.0 mg/kg/injection, schedule: Q04DX002 (ip), vehicle: saline with Tween-80): 3 of 6

[Cu+2].[O-]c1ccc(Br)c2cccnc12.[O-]c1ccc(Br)c2cccnc12
survivor count (dose: 50.0 mg/kg/injection, schedule: Q04DX003 (ip), vehicle: saline with Tween-80): 5 of 6 | survivor count (dose: 75.0 mg/kg/injection, schedule: Q04DX003 (ip), vehicle: saline with Tween-80): 5 of 6 | survivor count (dose: 100.0 mg/kg/injection, schedule: Q04DX003 (ip), vehicle: saline with Tween-80): 6 of 6 | survivor count (dose: 200.0 mg/kg/injection, schedule: Q04DX003 (ip), vehicle: saline with Tween-80): 1 of 6 | survivor count (dose: 400.0 mg/kg/injection, schedule: Q04DX003 (ip), vehicle: saline with Tween-80): 1 of 6

Cc1nc2c(N)cc(Cl)cc2[nH]1
T/C (dose: 200.0 mg/kg/injection, schedule: Q01DX005 (ip), vehicle: saline + Tween-80 + alcohol): 146 % of control [5 of 6 alive] | survivor count (dose: 400.0 mg/kg/injection, schedule: Q01DX005 (ip), vehicle: saline with Tween-80): 0 of 6

COc1ccc2c(C)cc(N/N=C/c3ccccn3)nc2c1
T/C (dose: 100.0 mg/kg/injection, schedule: Q01DX005 (ip), vehicle: Klucel (hydroxypropylcellulose) (HPC)): 125 % of control | survivor count (dose: 200.0 mg/kg/injection, schedule: Q01DX005 (ip), vehicle: Klucel (hydroxypropylcellulose) (HPC)): 1 of 6, 2 of 6, 3 of 5

CCOC(=O)c1c(C)[nH]c(-c2ccccc2)c1NS(=O)(=O)c1ccc(N)cc1
survivor count [1]: 6 of 6

CC(C)CC1C(=O)N2CCCC2C2(O)OC(NC(=O)C3C=C4c5cccc6[nH]cc(c56)CC4N(C)C3)(C(C)C)C(=O)N12 (stereo unspecified)
survivor count (dose: 10.0 mg/kg/injection, schedule: Q01DX009 (ip), vehicle: Klucel (hydroxypropylcellulose) (HPC)): 6 of 6

NC(Cc1ccc(N(CCCl)CCCl)cc1)C(=O)O (stereo unspecified)
survivor count (dose: 12.5 mg/kg/injection, schedule: Q01DX009 (ip), vehicle: Klucel (hydroxypropylcellulose) (HPC)): 6 of 6 | survivor count (dose: 25.0 mg/kg/injection, schedule: Q01DX009 (ip), vehicle: Klucel (hydroxypropylcellulose) (HPC)): 1 of 6 | survivor count [3]: 2 of 6 | survivor count [4]: 0 of 6 | survivor count [5]: 0 of 6

OC(c1ccccc1)C(O)C(c1ccccc1)N1CCCCC1 (stereo unspecified)
survivor count (dose: 400.0 mg/kg/injection, schedule: Q01DX009 (ip), vehicle: saline): 6 of 6

S=c1n(-c2ccc(Cl)cc2)c2nc3ccccc3nc(/c2=N\Nc2ccc(Br)cc2)n1-c1ccccn1
survivor count (dose: 100.0 mg/kg/injection, schedule: Q01DX005 (ip), vehicle: saline with Tween-80): 5 of 6 | survivor count [6]: 0 of 6

Cc1cc(C)c(S(=O)(=O)N/N=C(\CBr)c2ccccc2)c(C)c1
survivor count [2]: 6 of 6 | survivor count (dose: 120.0 mg/kg/injection, schedule: Q01DX005 (ip), vehicle: saline with Tween-80): 6 of 6

CCOC(=O)Nc1nc2ccc(SC#N)cc2s1
survivor count [3]: 6 of 6 | survivor count [4]: 6 of 6 | survivor count [5]: 0 of 6

CCC1(O)C(=O)OCc2c1cc1n(c2=O)Cc2cc3ccccc3nc2-1 (stereo unspecified)
T/C (dose: 1.0 mg/kg/injection, schedule: Q04DX003 (ip), vehicle: other, evaluated on day 40): 138 % of control | T/C (dose: 1.0 mg/kg/injection, schedule: Q04DX003 (ip), vehicle: other, evaluated on day 45): 140 % of control | survivor count (dose: 16.0 mg/kg/injection, schedule: Q04DX003 (ip), vehicle: other): 2 of 6

CCN(CC)c1ccc2[nH]c3c(C(N)=O)cc(=O)c(=O)c=3oc2c1
T/C (dose: 50.0 mg/kg/injection, schedule: Q01DX005 (ip), vehicle: saline with Tween-80): 137 % of control | survivor count [6]: 1 of 5

CNC=O
T/C (dose: 197.6 mg/kg/injection, schedule: Q01DX009 (ip), vehicle: saline): 136 % of control | T/C (dose: 296.5 mg/kg/injection, schedule: Q01DX005 (ip), vehicle: saline): 130 % of control | T/C (dose: 296.5 mg/kg/injection, schedule: Q01DX005 (ip), vehicle: water): 126 % of control | T/C (dose: 296.5 mg/kg/injection, schedule: Q01DX005 (iv), vehicle: saline): 133 % of control | T/C (dose: 296.5 mg/kg/injection, schedule: Q01DX005 (oral), vehicle: saline): 132 % of control | T/C (dose: 296.5 mg/kg/injection, schedule: Q01DX009 (ip), vehicle: saline): 148 % of control | T/C (dose: 296.5 mg/kg/injection, schedule: Q01DX009 (oral), vehicle: saline): 147 % of control | T/C (dose: 320.0 mg/kg/injection, schedule: Q01DX005 (ip), vehicle: water): 134 % of control [5 of 6 alive] | T/C (dose: 444.5 mg/kg/injection, schedule: Q01DX005 (ip), vehicle: saline): 138 % of control | T/C (dose: 444.5 mg/kg/injection, schedule: Q01DX005 (ip), vehicle: water): 142 % of control | T/C (dose: 444.5 mg/kg/injection, schedule: Q01DX005 (iv), vehicle: saline): 146 % of control | T/C (dose: 444.5 mg/kg/injection, schedule: Q01DX005 (oral), vehicle: saline): 144 % of control | T/C (dose: 640.0 mg/kg/injection, schedule: Q01DX005 (ip), vehicle: water): 142 and 145 % of control | T/C (dose: 666.7 mg/kg/injection, schedule: Q01DX005 (ip), vehicle: water): 125 % of control | T/C (dose: 666.7 mg/kg/injection, schedule: Q01DX005 (iv), vehicle: saline): 147 % of control | T/C (dose: 666.7 mg/kg/injection, schedule: Q01DX005 (oral), vehicle: saline): 137 % of control | T/C (dose: 1000.0 mg/kg/injection, schedule: Q01DX005 (ip), vehicle: saline): 130 % of control | T/C [7]: 136 % of control | survivor count [7]: 3 of 5 | survivor count (dose: 1000.0 mg/kg/injection, schedule: Q01DX009 (ip), vehicle: saline): 10 of 10 | T/C (dose: 1280.0 mg/kg/injection, schedule: Q01DX005 (ip), vehicle: water): 143 % of control [5 of 6 alive] | T/C (dose: 1500.0 mg/kg/injection, schedule: Q01DX001 (iv), vehicle: saline): 129 % of control | T/C (dose: 1500.0 mg/kg/injection, schedule: Q01DX001 (oral), vehicle: saline): 128 % of control | survivor count (dose: 1500.0 mg/kg/injection, schedule: Q01DX009 (oral), vehicle: saline): 10 of 10 | T/C (dose: 2250.0 mg/kg/injection, schedule: Q01DX001 (oral), vehicle: saline): 138 % of control
